In patent publication US7183411B2, “Naphthol, quinoline and isoquinoline-derived urea modulators of vanilloid VR1 receptor” (Janssen Pharmaceutica N.V., priority 2002, dated 2007):
The name of at least one read-out is uncertain.

The chains behind the UniProt entries cited, without tags or fusion partners.
UniProt Q8NER1, whole entry: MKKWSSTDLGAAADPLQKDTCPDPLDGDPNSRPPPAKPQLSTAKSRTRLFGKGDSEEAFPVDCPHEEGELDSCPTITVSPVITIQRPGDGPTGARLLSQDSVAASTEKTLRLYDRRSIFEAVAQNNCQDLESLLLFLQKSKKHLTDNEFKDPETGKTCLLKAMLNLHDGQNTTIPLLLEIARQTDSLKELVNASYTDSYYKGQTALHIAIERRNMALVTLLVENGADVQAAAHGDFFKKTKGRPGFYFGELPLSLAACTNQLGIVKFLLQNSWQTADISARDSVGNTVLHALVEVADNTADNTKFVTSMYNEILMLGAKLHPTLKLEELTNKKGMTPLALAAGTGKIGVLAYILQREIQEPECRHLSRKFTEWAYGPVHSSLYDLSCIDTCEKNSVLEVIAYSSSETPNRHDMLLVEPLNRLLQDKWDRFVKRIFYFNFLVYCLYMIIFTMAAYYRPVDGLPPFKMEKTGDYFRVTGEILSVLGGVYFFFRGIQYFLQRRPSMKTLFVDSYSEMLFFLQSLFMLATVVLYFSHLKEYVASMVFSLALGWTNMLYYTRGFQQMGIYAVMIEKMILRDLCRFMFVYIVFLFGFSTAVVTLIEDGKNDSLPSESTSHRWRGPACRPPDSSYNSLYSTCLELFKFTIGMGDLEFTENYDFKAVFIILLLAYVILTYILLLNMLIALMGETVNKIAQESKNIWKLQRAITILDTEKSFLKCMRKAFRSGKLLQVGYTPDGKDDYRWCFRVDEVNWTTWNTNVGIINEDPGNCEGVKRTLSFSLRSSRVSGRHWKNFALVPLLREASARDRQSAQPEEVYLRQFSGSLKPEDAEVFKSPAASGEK

target: T1, human VR1 (Homo sapiens, UniProt Q8NER1); experiment: Human VR1 functional assay (FLIPR intracellular Ca2+, capsaicin challenge); format: cell-based; conditions: HEK293 cells expressing human VR1, FLIPR, capsaicin 0.015 μM; read-out: In vitro functional assays hIC50 or EC50
T1 construct: expressed in transfected cells; host or cells: HEK293
Procedure: The functional activity of the test compounds was determined by measuring changes in intracellular calcium concentration using a Ca^++-sensitive fluorescent dye and FLIPR™ technology.
HEK293 Cells expressing human VR1 were grown on poly-D-lysine coated 96 well black-walled plates (BD 354640) and 2 days later loaded with Fluo-3/AM for 1 hour and subsequently tested for agonist-induced increases in intracellular Ca^2+ levels using FLIPR™ technology. […] EC50 or IC50 values were determined from dose-response studies.

EC50, 30 µM:
O=C(Nc1cccc2ccc(O)cc12)N(Cc1ccccc1)Cc1ccccc1 [Compound 25]
O=C(Nc1cccc2ccc(O)cc12)N(CCc1ccccc1)Cc1ccccc1 [Compound 28]
O=C(NCc1nc2ccccc2[nH]1)Nc1cccc2ccc(O)cc12 [Compound 32]
